Some of the results follow.

Amino acid sequences for entries named in this document (tags omitted). A change or cut given only in a name is not applied to a line headed by its entry.
UniProt Q6XUX3: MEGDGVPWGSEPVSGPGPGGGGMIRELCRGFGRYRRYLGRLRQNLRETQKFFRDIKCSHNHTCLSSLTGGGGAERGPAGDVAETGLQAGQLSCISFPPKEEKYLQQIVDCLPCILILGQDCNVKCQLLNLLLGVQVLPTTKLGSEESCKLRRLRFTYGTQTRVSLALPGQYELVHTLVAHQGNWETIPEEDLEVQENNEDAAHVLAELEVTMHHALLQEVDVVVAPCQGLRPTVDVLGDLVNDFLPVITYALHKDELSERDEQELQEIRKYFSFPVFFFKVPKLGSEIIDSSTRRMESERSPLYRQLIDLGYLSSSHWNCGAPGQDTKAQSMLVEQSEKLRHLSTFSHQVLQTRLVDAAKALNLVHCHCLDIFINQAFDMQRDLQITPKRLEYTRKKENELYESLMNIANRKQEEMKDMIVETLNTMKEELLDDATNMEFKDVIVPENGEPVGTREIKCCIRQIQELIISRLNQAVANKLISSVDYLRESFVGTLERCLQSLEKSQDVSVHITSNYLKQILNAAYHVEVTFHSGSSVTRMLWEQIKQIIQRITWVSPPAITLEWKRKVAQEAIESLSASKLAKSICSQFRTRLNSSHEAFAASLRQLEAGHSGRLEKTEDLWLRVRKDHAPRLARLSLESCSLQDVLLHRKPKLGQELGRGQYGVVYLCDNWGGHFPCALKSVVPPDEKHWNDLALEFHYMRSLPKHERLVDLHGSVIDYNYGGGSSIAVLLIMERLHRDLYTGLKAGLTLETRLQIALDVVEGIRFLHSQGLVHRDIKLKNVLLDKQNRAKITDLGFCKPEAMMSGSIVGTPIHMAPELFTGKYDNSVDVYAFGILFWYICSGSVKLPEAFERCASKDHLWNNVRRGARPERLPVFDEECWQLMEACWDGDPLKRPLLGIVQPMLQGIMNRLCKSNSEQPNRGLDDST
UniProt Q5JPH6: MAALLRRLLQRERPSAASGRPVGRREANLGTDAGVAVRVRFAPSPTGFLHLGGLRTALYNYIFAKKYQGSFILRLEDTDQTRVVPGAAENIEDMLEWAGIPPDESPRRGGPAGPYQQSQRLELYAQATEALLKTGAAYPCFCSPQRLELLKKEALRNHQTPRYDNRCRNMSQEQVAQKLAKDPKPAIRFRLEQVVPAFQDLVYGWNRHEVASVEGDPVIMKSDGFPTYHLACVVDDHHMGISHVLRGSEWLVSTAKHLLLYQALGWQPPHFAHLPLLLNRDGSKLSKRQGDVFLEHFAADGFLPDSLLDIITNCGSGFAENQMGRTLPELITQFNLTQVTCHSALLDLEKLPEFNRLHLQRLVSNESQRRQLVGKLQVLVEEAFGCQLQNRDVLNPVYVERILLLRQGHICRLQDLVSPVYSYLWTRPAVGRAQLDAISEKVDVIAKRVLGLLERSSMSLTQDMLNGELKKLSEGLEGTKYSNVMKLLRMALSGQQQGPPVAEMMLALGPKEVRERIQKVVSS
UniProt Q5VYK3, whole entry, looked up: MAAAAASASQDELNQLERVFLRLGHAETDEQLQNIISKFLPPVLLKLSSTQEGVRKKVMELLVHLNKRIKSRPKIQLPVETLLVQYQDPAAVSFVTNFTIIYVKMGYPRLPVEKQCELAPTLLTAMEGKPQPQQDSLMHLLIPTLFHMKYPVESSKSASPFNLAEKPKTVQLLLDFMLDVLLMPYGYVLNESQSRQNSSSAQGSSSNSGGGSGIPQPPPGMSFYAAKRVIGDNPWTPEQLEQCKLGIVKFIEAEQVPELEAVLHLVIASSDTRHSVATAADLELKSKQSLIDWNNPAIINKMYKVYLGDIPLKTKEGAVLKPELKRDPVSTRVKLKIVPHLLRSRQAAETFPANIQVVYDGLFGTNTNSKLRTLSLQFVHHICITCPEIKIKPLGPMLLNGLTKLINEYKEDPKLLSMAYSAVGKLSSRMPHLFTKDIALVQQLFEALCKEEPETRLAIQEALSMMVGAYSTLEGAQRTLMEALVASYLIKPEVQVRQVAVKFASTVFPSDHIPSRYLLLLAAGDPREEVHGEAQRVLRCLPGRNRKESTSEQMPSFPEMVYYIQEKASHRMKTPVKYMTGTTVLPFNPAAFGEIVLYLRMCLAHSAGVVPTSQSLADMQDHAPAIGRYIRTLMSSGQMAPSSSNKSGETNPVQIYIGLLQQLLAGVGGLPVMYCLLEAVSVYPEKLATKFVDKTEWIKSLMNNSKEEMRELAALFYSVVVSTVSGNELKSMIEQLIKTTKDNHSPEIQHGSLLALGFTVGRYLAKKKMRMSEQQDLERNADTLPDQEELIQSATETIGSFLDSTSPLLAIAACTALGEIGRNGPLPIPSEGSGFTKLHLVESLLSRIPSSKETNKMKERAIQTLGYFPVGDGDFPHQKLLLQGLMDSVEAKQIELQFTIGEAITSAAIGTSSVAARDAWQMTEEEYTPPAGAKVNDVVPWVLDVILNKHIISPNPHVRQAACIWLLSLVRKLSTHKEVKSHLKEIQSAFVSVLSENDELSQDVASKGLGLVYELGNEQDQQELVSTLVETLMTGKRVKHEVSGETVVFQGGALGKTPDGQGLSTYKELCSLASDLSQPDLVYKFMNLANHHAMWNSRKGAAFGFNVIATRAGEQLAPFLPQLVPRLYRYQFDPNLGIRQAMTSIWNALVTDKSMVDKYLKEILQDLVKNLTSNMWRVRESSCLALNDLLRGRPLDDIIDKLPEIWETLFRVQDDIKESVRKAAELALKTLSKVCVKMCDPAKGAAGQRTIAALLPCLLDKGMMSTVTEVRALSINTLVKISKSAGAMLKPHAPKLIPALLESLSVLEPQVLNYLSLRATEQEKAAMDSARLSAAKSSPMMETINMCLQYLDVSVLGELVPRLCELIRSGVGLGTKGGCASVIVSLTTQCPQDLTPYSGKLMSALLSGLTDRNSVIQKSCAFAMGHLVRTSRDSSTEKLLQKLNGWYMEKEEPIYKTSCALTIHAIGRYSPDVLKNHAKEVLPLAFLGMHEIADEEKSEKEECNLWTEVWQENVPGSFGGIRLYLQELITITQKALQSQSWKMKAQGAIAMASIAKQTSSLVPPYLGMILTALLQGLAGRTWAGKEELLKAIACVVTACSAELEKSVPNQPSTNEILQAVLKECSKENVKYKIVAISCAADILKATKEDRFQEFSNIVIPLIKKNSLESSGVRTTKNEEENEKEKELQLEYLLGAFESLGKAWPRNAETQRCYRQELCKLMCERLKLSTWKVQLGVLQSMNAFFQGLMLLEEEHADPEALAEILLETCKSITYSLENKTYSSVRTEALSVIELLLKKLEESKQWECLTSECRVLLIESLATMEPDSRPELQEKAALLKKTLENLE
UniProt O43237, whole entry, looked up: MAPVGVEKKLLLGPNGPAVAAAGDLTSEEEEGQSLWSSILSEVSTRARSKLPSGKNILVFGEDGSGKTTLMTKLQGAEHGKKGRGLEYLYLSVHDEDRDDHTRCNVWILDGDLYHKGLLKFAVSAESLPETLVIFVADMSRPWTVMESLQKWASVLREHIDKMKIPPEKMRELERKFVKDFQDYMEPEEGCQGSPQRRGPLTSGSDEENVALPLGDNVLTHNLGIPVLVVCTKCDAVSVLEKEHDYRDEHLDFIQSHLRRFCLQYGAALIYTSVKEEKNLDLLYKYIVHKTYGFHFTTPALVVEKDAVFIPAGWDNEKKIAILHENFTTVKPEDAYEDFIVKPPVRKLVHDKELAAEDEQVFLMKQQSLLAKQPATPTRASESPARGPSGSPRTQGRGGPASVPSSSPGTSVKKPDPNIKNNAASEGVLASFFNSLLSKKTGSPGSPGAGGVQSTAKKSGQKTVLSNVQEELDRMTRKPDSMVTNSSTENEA
UniProt Q8NF50: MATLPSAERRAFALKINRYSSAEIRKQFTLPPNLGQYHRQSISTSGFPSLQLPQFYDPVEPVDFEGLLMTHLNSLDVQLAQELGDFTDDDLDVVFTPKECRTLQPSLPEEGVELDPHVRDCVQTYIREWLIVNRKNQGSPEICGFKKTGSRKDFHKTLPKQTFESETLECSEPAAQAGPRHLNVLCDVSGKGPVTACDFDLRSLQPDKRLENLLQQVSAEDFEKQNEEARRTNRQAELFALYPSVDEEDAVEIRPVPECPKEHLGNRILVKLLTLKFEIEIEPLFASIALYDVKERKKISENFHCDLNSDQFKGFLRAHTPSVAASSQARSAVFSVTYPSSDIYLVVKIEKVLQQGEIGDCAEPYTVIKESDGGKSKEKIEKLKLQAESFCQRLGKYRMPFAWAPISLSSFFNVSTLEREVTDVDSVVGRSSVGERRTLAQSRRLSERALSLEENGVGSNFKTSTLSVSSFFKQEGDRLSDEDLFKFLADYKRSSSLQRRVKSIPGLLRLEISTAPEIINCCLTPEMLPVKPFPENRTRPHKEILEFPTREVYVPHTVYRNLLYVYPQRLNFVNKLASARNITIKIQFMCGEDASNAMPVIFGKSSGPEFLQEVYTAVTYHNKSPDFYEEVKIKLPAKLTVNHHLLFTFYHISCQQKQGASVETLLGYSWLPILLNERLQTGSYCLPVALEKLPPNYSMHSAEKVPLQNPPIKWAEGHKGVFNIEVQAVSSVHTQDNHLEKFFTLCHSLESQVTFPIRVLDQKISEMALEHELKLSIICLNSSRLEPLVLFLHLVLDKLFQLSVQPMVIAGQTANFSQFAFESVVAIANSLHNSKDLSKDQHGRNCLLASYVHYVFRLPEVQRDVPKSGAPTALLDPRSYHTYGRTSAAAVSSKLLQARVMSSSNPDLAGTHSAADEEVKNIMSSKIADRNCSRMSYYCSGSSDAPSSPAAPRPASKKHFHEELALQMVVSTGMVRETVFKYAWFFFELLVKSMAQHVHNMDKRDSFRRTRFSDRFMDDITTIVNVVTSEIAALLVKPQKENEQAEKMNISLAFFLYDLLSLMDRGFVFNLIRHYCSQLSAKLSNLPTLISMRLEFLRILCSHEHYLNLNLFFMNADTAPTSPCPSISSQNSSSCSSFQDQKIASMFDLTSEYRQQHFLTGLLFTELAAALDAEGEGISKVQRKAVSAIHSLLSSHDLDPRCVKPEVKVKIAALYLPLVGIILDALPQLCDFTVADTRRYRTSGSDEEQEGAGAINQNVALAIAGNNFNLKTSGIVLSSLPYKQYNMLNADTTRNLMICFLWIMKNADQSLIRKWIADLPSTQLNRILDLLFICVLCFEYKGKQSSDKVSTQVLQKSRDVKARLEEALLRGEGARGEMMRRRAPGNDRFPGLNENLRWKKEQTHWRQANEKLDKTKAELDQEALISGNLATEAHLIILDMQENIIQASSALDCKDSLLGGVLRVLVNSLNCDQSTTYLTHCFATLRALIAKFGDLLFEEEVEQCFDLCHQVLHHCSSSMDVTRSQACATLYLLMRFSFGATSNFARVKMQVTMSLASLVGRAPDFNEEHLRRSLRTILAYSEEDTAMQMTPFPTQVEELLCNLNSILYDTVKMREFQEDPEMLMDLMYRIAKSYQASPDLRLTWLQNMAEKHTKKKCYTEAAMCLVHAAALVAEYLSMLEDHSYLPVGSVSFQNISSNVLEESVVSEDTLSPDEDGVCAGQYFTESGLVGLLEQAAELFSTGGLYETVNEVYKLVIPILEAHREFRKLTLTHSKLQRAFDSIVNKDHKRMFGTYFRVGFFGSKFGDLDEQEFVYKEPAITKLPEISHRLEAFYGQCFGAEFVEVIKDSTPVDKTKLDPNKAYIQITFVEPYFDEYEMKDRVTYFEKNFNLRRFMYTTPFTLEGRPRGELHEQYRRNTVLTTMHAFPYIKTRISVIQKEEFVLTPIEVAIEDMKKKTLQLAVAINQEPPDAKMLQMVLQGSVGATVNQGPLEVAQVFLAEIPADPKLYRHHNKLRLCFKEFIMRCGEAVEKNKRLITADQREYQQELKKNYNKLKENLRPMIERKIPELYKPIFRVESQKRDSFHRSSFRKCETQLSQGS
UniProt Q96G46: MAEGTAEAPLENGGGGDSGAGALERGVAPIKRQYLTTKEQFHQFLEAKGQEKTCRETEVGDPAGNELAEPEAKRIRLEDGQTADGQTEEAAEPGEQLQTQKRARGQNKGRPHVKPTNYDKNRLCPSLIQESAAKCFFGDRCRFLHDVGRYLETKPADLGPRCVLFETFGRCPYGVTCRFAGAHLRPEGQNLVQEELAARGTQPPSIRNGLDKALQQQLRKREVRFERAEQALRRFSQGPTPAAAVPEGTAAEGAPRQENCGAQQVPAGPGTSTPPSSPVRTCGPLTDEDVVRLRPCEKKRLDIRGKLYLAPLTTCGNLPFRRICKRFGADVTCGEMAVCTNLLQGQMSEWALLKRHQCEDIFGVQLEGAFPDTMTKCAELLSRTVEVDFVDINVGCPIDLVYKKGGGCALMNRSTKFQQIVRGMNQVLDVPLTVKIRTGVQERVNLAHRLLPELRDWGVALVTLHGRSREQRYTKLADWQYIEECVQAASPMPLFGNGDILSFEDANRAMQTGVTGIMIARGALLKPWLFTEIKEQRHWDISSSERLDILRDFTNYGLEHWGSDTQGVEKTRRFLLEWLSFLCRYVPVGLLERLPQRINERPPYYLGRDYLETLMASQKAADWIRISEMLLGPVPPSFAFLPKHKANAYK

Compound in one assay: CNC(=O)c1ccc(Nc2ncc(C(F)(F)F)c(NCc3nccnc3N(C)S(C)(=O)=O)n2)cc1 [defactinib]
Put plainly: log2 fold change, soluble protein after heating vs DMSO (PISA); higher = thermal stabilisation; K562 cells, 10 uM, 30 min; active = over 0.2 and 3.5 SD of the protein, either way, in both replicates (recomputed). In short, it runs like this:
(§1)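 Values are thermal stability changes relative to control samples and are taken from duplicates. They are stated as log2 fold changes. Before quantification by TMTpro 16plex LC-MS/MS with equalised channel sums, K562 cells at 2×10^6 cells/mL were treated with 10 μM compound for 30 min, heated in aliquots for 3 min across 48°C-58°C, pooled, extracted in PBS with 0.5% NP-40 at 4°C, and centrifuged at 21,000xg for 90 min to give the soluble supernatant.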
Consider DNAJC1 (UniProt Q96KC8), for which the log2 fold change was inactive: 0.004.

For the target DXO (UniProt O77932), the log2 fold change is inactive: 0.051.

As for DNAJB1 (UniProt P25685), the log2 fold change is inactive: -0.05.

Regarding DSTYK (UniProt Q6XUX3), the log2 fold change was inactive: -0.192.

Regarding EARS2 isoform 2 (UniProt Q5JPH6), the log2 fold change was inactive: -0.08.

Regarding ECPAS (UniProt Q5VYK3), the log2 fold change is inactive: -0.06.

In the case of DPYSL3 isoform 2 (UniProt Q14195), the log2 fold change is inactive: -0.207.

For the target DNPEP (UniProt C9JBE1), the log2 fold change is inactive: 0.19.

As for DYNC1LI2 (UniProt O43237), the log2 fold change is inactive: -0.039.

In the case of DUSP9 (UniProt Q99956), the log2 fold change is inactive: -0.063.

For DOCK8 (UniProt Q8NF50), the log2 fold change is inactive: 0.242.

As for DTYMK (UniProt P23919), the log2 fold change was inactive: 0.004.

For DOK1 (UniProt Q99704), the log2 fold change was inactive: -0.111.

In the case of DNAL1 (UniProt Q4LDG9), the log2 fold change is inactive: -0.14.

DUS3L (UniProt Q96G46): the log2 fold change was inactive: -0.148.

Take DNM2 (UniProt P50570): the log2 fold change was inactive: -0.02.

As for DYRK1A isoform 2 (UniProt Q13627), the log2 fold change is inactive: 0.03.

Take DYNC1I2 isoform 5 (UniProt Q13409): the log2 fold change is inactive: 0.001.

As for DTNBP1 (UniProt Q96EV8), the log2 fold change was inactive: -0.054.

On to DNAJB14 (UniProt Q8TBM8), for which the log2 fold change was inactive: 0.001.

Consider EEA1 (UniProt Q15075), for which the log2 fold change is inactive: -0.033.

As to DPH5 isoform 5 (UniProt Q9H2P9), the log2 fold change was inactive: 0.

Regarding DUSP14 (UniProt O95147), the log2 fold change was inactive: -0.035.

Take DNAJC5 (UniProt Q9H3Z4): the log2 fold change is inactive: 0.034.

Take DNAJB14 (UniProt H7C494): the log2 fold change was inactive: 0.028.

On to EDEM2 (UniProt Q9BV94), for which the log2 fold change is inactive: 0.036.

As to EBNA1BP2 (UniProt Q99848), the log2 fold change was inactive: 0.512.

As to DNAJC24 (UniProt Q6P3W2), the log2 fold change was inactive: 0.116.

Compound in a further assay: CNCc1ccc(-c2[nH]c3cc(F)cc4c3c2CCNC4=O)cc1 [rucaparib]
The assay is described as above. In short, it runs like this:
as §1
With DNAJC1 (UniProt Q96KC8), the log2 fold change is inactive: 0.03.

For DXO (UniProt O77932), the log2 fold change is inactive: -0.09.

With DNAJB1 (UniProt P25685), the log2 fold change is inactive: -0.025.

For DNAJB2 (UniProt P25686), the log2 fold change was inactive: 0.018.

For the target DSTYK (UniProt Q6XUX3), the log2 fold change was inactive: -0.004.

EARS2 isoform 2 (UniProt Q5JPH6): the log2 fold change is inactive: 0.104.

For ECPAS (UniProt Q5VYK3), the log2 fold change is inactive: 0.09.

For DYNC1LI2 (UniProt O43237), the log2 fold change is inactive: 0.42.

Regarding DNM2 isoform 4 (UniProt P50570), the log2 fold change is inactive: -0.268.

With DOCK8 (UniProt Q8NF50), the log2 fold change was inactive: 0.044.

For the target DTYMK (UniProt P23919), the log2 fold change is inactive: -0.044.

Consider DOK1 (UniProt Q99704), for which the log2 fold change is inactive: 0.206.

For the target EDRF1 (UniProt Q3B7T1), the log2 fold change was inactive: 0.098.

Take DUS3L (UniProt Q96G46): the log2 fold change was inactive: 0.204.

With DNM2 (UniProt P50570), the log2 fold change is inactive: 0.035.

For DYRK1A isoform 2 (UniProt Q13627), the log2 fold change was inactive: 0.036.

Turning to DYNC1I2 isoform 5 (UniProt Q13409), the log2 fold change was inactive: -0.006.

On to DTNBP1 (UniProt Q96EV8), for which the log2 fold change was inactive: -0.015.

For the target DNAJB14 (UniProt Q8TBM8), the log2 fold change was inactive: -0.023.

For the target EEA1 (UniProt Q15075), the log2 fold change was inactive: -0.035.

For the target DPH5 isoform 5 (UniProt Q9H2P9), the log2 fold change is inactive: -0.061.

Regarding DNAJC5 (UniProt Q9H3Z4), the log2 fold change is inactive: 0.016.

In the case of EBNA1BP2 (UniProt Q99848), the log2 fold change was inactive: 0.23.

Consider DNAJC24 (UniProt Q6P3W2), for which the log2 fold change is inactive: 0.059.

Compound in another assay: CNc1nc(-c2ccc3c(N)n[nH]c3c2)cc(N2C[C@@H](C(=O)NC3CCCCC3)CC[C@H]2C)n1
Described as above. In short, it runs like this:
as §1
With DNAJC1 (UniProt Q96KC8), the log2 fold change was inactive: -0.011.

Regarding DXO (UniProt O77932), the log2 fold change was inactive: -0.026.

With DNPH1 (UniProt H0Y8X4), the log2 fold change was inactive: -0.329.

DNAJB1 (UniProt P25685): the log2 fold change was inactive: -0.033.

For DNAJB2 (UniProt P25686), the log2 fold change was inactive: -0.083.

On to DSTYK (UniProt Q6XUX3), for which the log2 fold change is inactive: 0.166.

Take DNMT3B (UniProt Q9UBC3): the log2 fold change is inactive: -0.145.

Turning to EARS2 isoform 2 (UniProt Q5JPH6), the log2 fold change was inactive: 0.06.

As to ECPAS (UniProt Q5VYK3), the log2 fold change is inactive: 0.027.

Turning to DPYSL3 isoform 2 (UniProt Q14195), the log2 fold change was inactive: 0.102.

Regarding DNPEP (UniProt C9JBE1), the log2 fold change is inactive: -0.152.

Regarding DYNC1LI2 (UniProt O43237), the log2 fold change was inactive: 0.003.

Turning to DNM2 isoform 4 (UniProt P50570), the log2 fold change was inactive: -0.235.

For the target DUSP9 (UniProt Q99956), the log2 fold change was inactive: 0.211.

For the target DOCK8 (UniProt Q8NF50), the log2 fold change was inactive: -0.06.

Consider DTYMK (UniProt P23919), for which the log2 fold change was inactive: 0.003.

Turning to DNAL1 (UniProt Q4LDG9), the log2 fold change is inactive: 0.062.

Turning to EDRF1 (UniProt Q3B7T1), the log2 fold change was inactive: 0.07.

On to DUS3L (UniProt Q96G46), for which the log2 fold change was inactive: -0.033.

For the target DNM2 (UniProt P50570), the log2 fold change was inactive: 0.029.

In the case of DYRK1A isoform 2 (UniProt Q13627), the log2 fold change was inactive: 0.029.

Consider DYNC1I2 isoform 5 (UniProt Q13409), for which the log2 fold change is inactive: -0.005.

As to DTNBP1 (UniProt Q96EV8), the log2 fold change is inactive: 0.005.

On to EEA1 (UniProt Q15075), for which the log2 fold change is inactive: -0.026.

In the case of DPH5 isoform 5 (UniProt Q9H2P9), the log2 fold change was inactive: 0.

Take DUSP14 (UniProt O95147): the log2 fold change is inactive: -0.108.

As to DNAJC5 (UniProt Q9H3Z4), the log2 fold change was inactive: 0.039.

In the case of DNAJB14 (UniProt H7C494), the log2 fold change was inactive: -0.116.

In the case of EDEM2 (UniProt Q9BV94), the log2 fold change was inactive: 0.079.

As to EBNA1BP2 (UniProt Q99848), the log2 fold change is inactive: 0.142.

As to DNAJC24 (UniProt Q6P3W2), the log2 fold change was active: -0.351.
